61 compounds from PubChem BioAssay AID2685 (National Center for Advancing Translational Sciences (NCATS), 2010) can be followed below.

The assay is described as follows: qHTS Assay for Lipid Storage Modulators in Drosophila S3 Cells.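 For cell number change: cells counted by Cell Tracker Red CMTPX staining in the red channel.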 Conditions: BODIPY lipid droplet fluorescence, 18-24 h; for cell number change: measured here: cell count max response, cells fed with added oleic acid. The gist of the method: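 Laser-scanning cytometry quantifies lipid droplet accumulation (500–530 nm total intensity; droplet/cell object ratio) in oleic acid-fed (400 uM added) Drosophila S3 cells treated with a concentration series. 20 uM Triacsin C defined 100% inhibition.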
On the technique in general: qHTS replaces the single test concentration by a dilution series.

[1] abbreviates: measured here: cell number channel AC50, cells fed with added oleic acid.
Where [2] appears, read: measured here: lipid fluorescence (Fed channel) AC50, cells fed with added oleic acid.

As usually defined, the AC50 is the concentration at which the activity in the assay is half-maximal. High values mean weaker potency, low ones greater potency.

Structures are written as SMILES. Some of the results follow. These are further read-outs of the screen, such as a control signal, another cell line or another target. No call is given for them. Most of these compounds were active or inconclusive in the main read-out, so they are no random draw. Potencies come from curve fits of mixed quality, noted in brackets.

As for `CSc1nc2c(c(=O)[nH]1)C(c1ccc(F)cc1)CC(=O)N2` (stereo not drawn), the cell number change amounted to 36.2%. Under setting [1], the AC50 was 3.26 µM [rising, single point].

Regarding `O=C(NCCc1ccccc1)C1CCN(C(=O)NCc2ccccc2)CC1`, the cell number change is -40.2%. For the same compound, the AC50 under setting [1] was 6.51 µM [falling, partial curve, poor fit]. The concentration at half-maximal activity (AC50) under setting [2] was 11.6 µM [falling, partial curve].

Consider `COCCn1c(C)cc(C(=O)COC(=O)c2ccc(NC(=O)CC#N)cc2)c1C`, for which the AC50 under setting [2] was 4.61 µM [falling, partial curve].

As for `Cc1ccc(Nc2nc(N)nc(COC(=O)c3ccc(Br)o3)n2)cc1`, the cell number change was determined as 6.83%.

For the compound `COc1ccccc1N1CCN(C(=O)C2CC(=O)N(c3ccccc3)C2)CC1` (stereo not drawn), the cell number change was -15.4%.

Consider `CCOc1ccc(CCNC(=O)COn2nnc3ccc(S(=O)(=O)N4CCOCC4)cc32)cc1OCC`, for which the cell number change was -3.93%.

For the compound `CC(C)C[C@@H](CSc1ccccc1)N1CCN(CCc2ccccc2)CCC1=O`, the cell number change worked out at 10.4%.

Turning to `COc1cc(OC)cc(C(=O)NC2CCN(Cc3nnnn3Cc3cccs3)CC2)c1`, the cell number change was found to be 47.8%. For the same compound, under setting [1], the AC50 is 9.2 µM [rising, partial curve, poor fit]. Also, the half-maximal activity concentration (AC50) under setting [2] is 11.6 µM [rising, partial curve].

As for `COc1cccc(NC(=O)CN(C)C(=O)c2cccc(S(=O)(=O)N3c4ccccc4CC3C)c2)c1` (stereo not drawn), the cell number change was determined as 203%. Further, the AC50 under setting [1] is 23.1 µM [rising, single point].

Regarding `O=C(NCCCN1CCCCC1)c1ccc2c(c1)NC(=O)c1ccccc1S2`, the cell number change was determined as 12.2%. For the same compound, the AC50 under setting [2] is 29.1 µM [rising, single point].

Take `O=C(NCCCn1ccnc1)c1cc2nc(-c3ccc(Br)cc3)cc(C(F)(F)F)n2n1`: the cell number change is -27.4%. For the same compound, the AC50 under setting [2] is 5.8 µM [falling, partial curve].

In the case of `COc1cccc(CNC(=O)Cn2c(=O)n(CCC(=O)N3CCCCC3)c(=O)c3sccc32)c1`, under setting [2], the half-maximal activity concentration (AC50) is 29.1 µM [falling, single point].

For `CCOC(=O)c1nn(-c2cc(C(=O)OC)cc(C(=O)OC)c2)cc1O`, the cell number change came out at 32.7%. The AC50 under setting [1] was 13 µM [rising, partial curve, poor fit].

Turning to `CCOc1cc(N2CCOCC2)c(OCC)cc1NC(=O)c1ccc(-n2ccnc2)c([N+](=O)[O-])c1`, the cell number change was 16.2%.

On to `Cc1cc(N2C(=O)Cc3ccccc3C2=O)ccc1C(C)C`, for which the cell number change is -19.1%.

As to `O=C(N/N=C/c1ccc([N+](=O)[O-])s1)C(O)c1ccccc1` (stereo not drawn), the cell number change was -34.6%. Further, the AC50 under setting [1] is 11.6 µM [falling, partial curve, poor fit]. Also, the half-maximal activity concentration (AC50) under setting [2] was 0.00461 µM [falling, full curve, poor fit].

Turning to `COc1ccc(NS(=O)(=O)c2ccc(N/N=C(\C)c3ccncc3)c([N+](=O)[O-])c2)cc1`, the half-maximal activity concentration (AC50) under setting [2] was 6.51 µM [falling, partial curve, poor fit].

As for `CC(Oc1ccc(Cl)cc1)C(=O)NCCCn1ccnc1` (stereo not drawn), the AC50 under setting [1] was 6.51 µM [rising, single point] and the AC50 under setting [2] was 0.00517 µM [rising, full curve, poor fit].

As to `O=[N+]([O-])c1ccc2c(c1)nnn2-c1ccccc1`, the cell number change was -7.61%.

In the case of `O=S(=O)(c1ccc(N2CCOCC2)c(Cl)c1)N1CCOCC1`, the cell number change was -8.82%. Moreover, the AC50 under setting [2] is 0.231 µM [rising, full curve].

Turning to `O=C1CN(/N=C/c2ccc([N+](=O)[O-])o2)C(=O)N1`, the cell number change is -37.9%. For the same compound, the AC50 under setting [1] was 0.461 µM [falling, full curve]. The half-maximal activity concentration (AC50) under setting [2] is 8.2 µM [falling, partial curve, poor fit].

Turning to `Cc1ccc(CNC(=O)c2oc3ccc(S(=O)(=O)N4CCOCC4)cc3c2C)cc1`, the cell number change is -0.959%.

Consider `CCCCc1sc(-c2c(C#N)c(N)nc3c2CCCCC3)cc1[N+](=O)[O-]`, for which the cell number change is -22.6%.

As to `Cn1nccc1C(=O)NC1CCCc2c1cnn2-c1ccc(C(C)(C)C)cc1` (stereo not drawn), the cell number change was -15.3%.

For the compound `O=C1CN(C(=O)COC(=O)C23CC4CC(CC(O)(C4)C2)C3)c2ccccc2N1`, the cell number change is -151%. Besides, the half-maximal activity concentration (AC50) under setting [1] is 25.9 µM [falling, partial curve]. The AC50 under setting [2] was 0.13 µM [falling, full curve, poor fit].

For `COc1ccc(S(=O)(=O)N2CCCC2)cc1NC(=O)c1ccccc1`, the cell number change was 18.8%.

As for `CC(=O)Nc1nonc1NC(=O)c1ccc(F)cc1`, the cell number change is -33.1%. Moreover, the concentration at half-maximal activity (AC50) under setting [1] was 0.0651 µM [falling, full curve]. Also, the half-maximal activity concentration (AC50) under setting [2] is 0.651 µM [falling, full curve].

With `COc1ccc(C(c2nnnn2C2CCCC2)N2CCN(C3CCCC3)CC2)cc1OC` (stereo not drawn), the cell number change is -68.1%. Further, under setting [1], the half-maximal activity concentration (AC50) was 29.1 µM [falling, single point].

For the compound `COc1ccc(N=Cc2sc(O)c3ccccc23)cc1`, the cell number change was -91%. Moreover, the AC50 under setting [1] was 23.1 µM [falling, single point]. Also, the AC50 under setting [2] was 29.1 µM [falling, single point].

Consider `CC1CN(S(=O)(=O)c2cccc(C(=O)Nc3ccccc3N3CCCC3)c2)CC(C)O1` (stereo not drawn), for which the cell number change amounted to 58.5%. For the same compound, under setting [1], the AC50 is 2.59 µM [rising, full curve].

As for `Cc1cccc(-c2c3c(=O)n(C)c(=O)n(C)c3cn2CC2CCCO2)c1` (stereo not drawn), the cell number change amounted to 9.4%.

As to `CN(C(=O)COC(=O)CNS(=O)(=O)/C=C/c1ccccc1)C1CCS(=O)(=O)C1` (stereo not drawn), the cell number change stood at 1.67%. Also, the half-maximal activity concentration (AC50) under setting [2] is 23.1 µM [rising, single point].

In the case of `COC(=O)/C(=C(/F)Sc1cc(C)c(O)c(C)c1)C(F)(F)F`, the cell number change was -38.2%. Besides, the AC50 under setting [1] is 3.26 µM [falling, full curve]. For the same compound, the AC50 under setting [2] is 3.66 µM [falling, full curve].

`CC(C)Cn1nc(NC(=O)C2CCCO2)c2cc3ccccc3nc21` (stereo not drawn): the cell number change was -22.1%.

On to `Fc1cccc(-c2nn[nH]n2)c1`, for which the cell number change amounted to 27.3%. Moreover, the AC50 under setting [2] is 6.51 µM [falling, single point].

Take `CCc1ccc(N2CC(C(=O)N3CCCCCC3)CC2=O)cc1` (stereo not drawn): the cell number change came to 12%. For the same compound, the concentration at half-maximal activity (AC50) under setting [2] is 1.64 µM [rising, partial curve, poor fit].

In the case of `COc1ccc(N2CCN(c3cnc4ccccc4n3)CC2)cc1`, the cell number change is 18.8%. Moreover, the AC50 under setting [2] was 0.146 µM [rising, full curve, poor fit].

As for `COc1ccc(OCc2nnnn2-c2ccccc2)cc1`, the concentration at half-maximal activity (AC50) under setting [1] was 4.61 µM [rising, single point] and the AC50 under setting [2] was 3.66 µM [rising, single point].

For the compound `CS(=O)(=O)c1ccc(C(=O)OCC(=O)NC(=O)C2CCCCC2)cc1[N+](=O)[O-]`, the cell number change was -45.6%. In addition, the AC50 under setting [1] is 18.4 µM [falling, single point]. The AC50 under setting [2] was 29.1 µM [falling, partial curve, poor fit].

As for `O=C(Cc1ccc(-n2c(=O)c3sccc3n(CC(=O)Nc3ccccc3)c2=O)cc1)NCc1ccco1`, the cell number change is -13.1%.

With `CC(=O)c1ccc(NC(=O)Cn2cnc(S(=O)(=O)N3CCc4ccccc43)c2)cc1`, the cell number change was 22.9%. In addition, the concentration at half-maximal activity (AC50) under setting [1] is 0.82 µM [rising, full curve, poor fit].

For `Cc1cc(-c2ccccc2)nc(N(C)C)c1S(C)(=O)=O`, the cell number change is 6.1%.

`COc1ccc(C(=O)/C=C/c2ccc(OC)c(Cn3nnc4ccccc43)c2)cc1`: the cell number change is -12.4%. Also, under setting [2], the concentration at half-maximal activity (AC50) is 29.1 µM [falling, single point].

As to `CCC1SC2=NC(C)=C(C(=O)OC)C(c3cccs3)N2C1=O` (stereo not drawn), the cell number change amounted to 12%. For the same compound, the AC50 under setting [2] is 29.1 µM [falling, single point].

Consider `NC(=O)c1ccc(SCC(=O)OCC(=O)NCc2ccco2)c([N+](=O)[O-])c1`, for which the cell number change is 7.13%.

In the case of `CC(C)c1ccc(C(C(=O)NC2CCCCC2)N(C(=O)c2csnn2)C2CC2)cc1` (stereo not drawn), the cell number change was 15%. For the same compound, under setting [2], the concentration at half-maximal activity (AC50) is 1.3 µM [rising, full curve, poor fit].

On to `COC(=O)c1oc2ccc(Cl)cc2c1N`, for which the cell number change amounted to 0.397%. Besides, the concentration at half-maximal activity (AC50) under setting [2] was 1.3 µM [rising, partial curve, poor fit].

For the compound `Cn1c(N)c(C(=O)COC(=O)CCCc2c[nH]c3ccccc23)c(=O)n(C)c1=O`, the cell number change was determined as 83.8%. For the same compound, under setting [1], the AC50 is 29.1 µM [rising, single point]. For the same compound, under setting [2], the AC50 is 0.731 µM [falling, single point].

For the compound `Cc1c(C(=O)OC2CCC(C)CC2)[nH]c2c1C(=O)CCC2` (stereo not drawn), the cell number change was 6.32%. Under setting [2], the AC50 is 6.51 µM [rising, single point].

`CC(C)N(c1ccccc1)c1ncnc(NCCC(=O)O)c1[N+](=O)[O-]`: the cell number change is -12%. Besides, the AC50 under setting [2] is 20.6 µM [falling, partial curve].

As to `COc1ccccc1-n1nnnc1SCC(=O)N(C)C1CCS(=O)(=O)C1` (stereo not drawn), the cell number change was 7.72%. The AC50 under setting [2] was 0.82 µM [rising, full curve].

`COc1ccc(-c2oc3ccccc3c2C(=O)OCc2ccccc2)cc1`: the cell number change amounted to 34.6%. The half-maximal activity concentration (AC50) under setting [1] was 0.116 µM [rising, full curve, poor fit].

For `CCC(=O)N(Cc1ccco1)c1nc(-c2ccccc2)cs1`, the cell number change was -45.4%. Moreover, the concentration at half-maximal activity (AC50) under setting [1] was 29.1 µM [falling, single point].

Turning to `c1ccc2c(c1)N1CCN=C1N2CCN1CCCCC1`, the cell number change was -49.3%. Moreover, the AC50 under setting [1] was 5.8 µM [falling, full curve]. In addition, the half-maximal activity concentration (AC50) under setting [2] is 6.51 µM [falling, single point].

As to `CC1CCCCN1CCNC(=O)c1ccc2c(=O)n(Cc3ccc(Cl)cc3)c(=S)[nH]c2c1` (stereo not drawn), the cell number change was found to be 2.59%. The concentration at half-maximal activity (AC50) under setting [1] is 6.51 µM [rising, single point]. In addition, the AC50 under setting [2] is 0.326 µM [rising, full curve].

Turning to `COc1ccc(S(=O)(=O)N(CCc2ccccc2)CC(=O)NC(C)C)cc1`, the cell number change was 23.1%. Besides, under setting [2], the AC50 was 18.4 µM [rising, partial curve].

Take `C[C@H](NC(=O)NC1CCCc2ccccc21)C(=O)O` (stereo partly drawn): the cell number change came out at 5.21%. In addition, under setting [2], the AC50 was 0.82 µM [falling, single point].

For `Cc1nn2c(-c3ccccc3)ccnc2c1-c1ccccc1`, under setting [1], the AC50 was 0.517 µM [rising, full curve].

For `COc1ccc(CCC(C)NCc2cc(OC)cc(OC)c2)cc1` (stereo not drawn), the cell number change was -8.84%.

In the case of `N#CCCn1cnc2c(=S)nc[nH]c21`, the cell number change is -11.9%. Also, the AC50 under setting [1] is 2.06 µM [falling, partial curve, poor fit]. Also, under setting [2], the AC50 was 1.84 µM [falling, partial curve].

For the compound `O=C(COc1ccccc1)N(Cc1nnc(-c2ccccc2Cl)o1)C1CC1`, the cell number change was -54.5%.
